Experiment [1] has as its target T1, heat-shock protein 47 (HSP47), mouse, endogenous (mouse (endogenous in liver and HSCs of C57BL/6 mice)) (UniProt P19324).
T1 sequence: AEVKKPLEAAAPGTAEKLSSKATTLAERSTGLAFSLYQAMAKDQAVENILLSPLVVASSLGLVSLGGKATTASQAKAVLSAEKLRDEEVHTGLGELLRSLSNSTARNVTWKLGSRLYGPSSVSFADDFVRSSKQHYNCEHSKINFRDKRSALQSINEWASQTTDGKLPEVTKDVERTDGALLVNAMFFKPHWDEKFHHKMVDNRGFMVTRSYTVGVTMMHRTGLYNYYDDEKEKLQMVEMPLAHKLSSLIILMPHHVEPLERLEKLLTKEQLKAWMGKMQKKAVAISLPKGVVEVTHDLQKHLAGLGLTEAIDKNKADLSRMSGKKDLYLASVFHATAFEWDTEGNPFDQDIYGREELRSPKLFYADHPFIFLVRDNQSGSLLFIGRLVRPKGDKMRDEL
Put plainly: proximity ligation; mouse liver sections (oil or CCl4; EV, PDEL or PMUT CRISPR), PLA co-stained with the HSC marker desmin.

Protein sequences, listed by entry. Tags and fused reporters are not part of them. Lines headed by an entry give the natural chain unless they say otherwise; changes in a name come on top. Residues count along the entry.
UniProt Q02952: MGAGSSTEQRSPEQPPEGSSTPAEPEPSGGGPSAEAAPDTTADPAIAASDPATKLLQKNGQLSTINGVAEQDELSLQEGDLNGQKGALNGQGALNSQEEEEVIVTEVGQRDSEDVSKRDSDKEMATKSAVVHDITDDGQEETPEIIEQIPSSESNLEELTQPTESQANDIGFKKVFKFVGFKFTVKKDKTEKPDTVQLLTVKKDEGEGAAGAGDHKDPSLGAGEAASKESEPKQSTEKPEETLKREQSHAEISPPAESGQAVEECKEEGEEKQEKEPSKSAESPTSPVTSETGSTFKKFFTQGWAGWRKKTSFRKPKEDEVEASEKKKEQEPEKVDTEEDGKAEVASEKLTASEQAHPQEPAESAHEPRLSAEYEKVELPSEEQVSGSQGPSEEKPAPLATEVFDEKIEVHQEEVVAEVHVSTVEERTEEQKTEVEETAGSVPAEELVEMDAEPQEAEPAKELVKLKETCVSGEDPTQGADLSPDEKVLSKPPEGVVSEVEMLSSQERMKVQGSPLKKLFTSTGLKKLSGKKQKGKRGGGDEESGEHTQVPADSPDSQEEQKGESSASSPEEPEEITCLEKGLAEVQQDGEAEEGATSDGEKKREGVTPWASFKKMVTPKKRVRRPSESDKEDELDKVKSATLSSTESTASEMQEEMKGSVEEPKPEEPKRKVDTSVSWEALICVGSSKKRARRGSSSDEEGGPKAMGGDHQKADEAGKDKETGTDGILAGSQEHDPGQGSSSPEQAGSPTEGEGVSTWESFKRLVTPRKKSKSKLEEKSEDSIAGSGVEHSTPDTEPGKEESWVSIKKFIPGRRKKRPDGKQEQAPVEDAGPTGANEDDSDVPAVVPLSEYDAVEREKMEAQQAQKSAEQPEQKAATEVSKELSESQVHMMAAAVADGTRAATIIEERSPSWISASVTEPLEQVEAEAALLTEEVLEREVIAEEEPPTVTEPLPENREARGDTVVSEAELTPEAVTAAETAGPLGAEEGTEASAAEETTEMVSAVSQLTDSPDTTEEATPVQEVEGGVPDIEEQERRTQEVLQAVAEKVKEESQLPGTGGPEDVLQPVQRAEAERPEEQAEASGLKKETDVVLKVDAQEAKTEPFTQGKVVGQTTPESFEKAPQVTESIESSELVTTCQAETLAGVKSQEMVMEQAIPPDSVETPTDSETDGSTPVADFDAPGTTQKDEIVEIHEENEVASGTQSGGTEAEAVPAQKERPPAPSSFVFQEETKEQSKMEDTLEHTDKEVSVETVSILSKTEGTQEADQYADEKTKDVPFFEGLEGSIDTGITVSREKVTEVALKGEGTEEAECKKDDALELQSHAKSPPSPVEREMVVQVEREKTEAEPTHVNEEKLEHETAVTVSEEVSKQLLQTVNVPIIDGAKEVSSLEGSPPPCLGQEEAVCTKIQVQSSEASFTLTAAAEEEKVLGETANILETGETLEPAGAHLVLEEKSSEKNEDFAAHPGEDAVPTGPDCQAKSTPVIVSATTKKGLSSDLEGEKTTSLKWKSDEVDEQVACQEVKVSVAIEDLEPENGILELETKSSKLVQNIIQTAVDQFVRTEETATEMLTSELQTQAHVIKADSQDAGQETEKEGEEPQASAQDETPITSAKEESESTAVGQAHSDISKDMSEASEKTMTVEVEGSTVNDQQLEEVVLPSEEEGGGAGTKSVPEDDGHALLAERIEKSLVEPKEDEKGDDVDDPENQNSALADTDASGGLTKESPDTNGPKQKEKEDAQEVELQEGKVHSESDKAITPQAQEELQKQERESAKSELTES
UniProt Q9WTQ5: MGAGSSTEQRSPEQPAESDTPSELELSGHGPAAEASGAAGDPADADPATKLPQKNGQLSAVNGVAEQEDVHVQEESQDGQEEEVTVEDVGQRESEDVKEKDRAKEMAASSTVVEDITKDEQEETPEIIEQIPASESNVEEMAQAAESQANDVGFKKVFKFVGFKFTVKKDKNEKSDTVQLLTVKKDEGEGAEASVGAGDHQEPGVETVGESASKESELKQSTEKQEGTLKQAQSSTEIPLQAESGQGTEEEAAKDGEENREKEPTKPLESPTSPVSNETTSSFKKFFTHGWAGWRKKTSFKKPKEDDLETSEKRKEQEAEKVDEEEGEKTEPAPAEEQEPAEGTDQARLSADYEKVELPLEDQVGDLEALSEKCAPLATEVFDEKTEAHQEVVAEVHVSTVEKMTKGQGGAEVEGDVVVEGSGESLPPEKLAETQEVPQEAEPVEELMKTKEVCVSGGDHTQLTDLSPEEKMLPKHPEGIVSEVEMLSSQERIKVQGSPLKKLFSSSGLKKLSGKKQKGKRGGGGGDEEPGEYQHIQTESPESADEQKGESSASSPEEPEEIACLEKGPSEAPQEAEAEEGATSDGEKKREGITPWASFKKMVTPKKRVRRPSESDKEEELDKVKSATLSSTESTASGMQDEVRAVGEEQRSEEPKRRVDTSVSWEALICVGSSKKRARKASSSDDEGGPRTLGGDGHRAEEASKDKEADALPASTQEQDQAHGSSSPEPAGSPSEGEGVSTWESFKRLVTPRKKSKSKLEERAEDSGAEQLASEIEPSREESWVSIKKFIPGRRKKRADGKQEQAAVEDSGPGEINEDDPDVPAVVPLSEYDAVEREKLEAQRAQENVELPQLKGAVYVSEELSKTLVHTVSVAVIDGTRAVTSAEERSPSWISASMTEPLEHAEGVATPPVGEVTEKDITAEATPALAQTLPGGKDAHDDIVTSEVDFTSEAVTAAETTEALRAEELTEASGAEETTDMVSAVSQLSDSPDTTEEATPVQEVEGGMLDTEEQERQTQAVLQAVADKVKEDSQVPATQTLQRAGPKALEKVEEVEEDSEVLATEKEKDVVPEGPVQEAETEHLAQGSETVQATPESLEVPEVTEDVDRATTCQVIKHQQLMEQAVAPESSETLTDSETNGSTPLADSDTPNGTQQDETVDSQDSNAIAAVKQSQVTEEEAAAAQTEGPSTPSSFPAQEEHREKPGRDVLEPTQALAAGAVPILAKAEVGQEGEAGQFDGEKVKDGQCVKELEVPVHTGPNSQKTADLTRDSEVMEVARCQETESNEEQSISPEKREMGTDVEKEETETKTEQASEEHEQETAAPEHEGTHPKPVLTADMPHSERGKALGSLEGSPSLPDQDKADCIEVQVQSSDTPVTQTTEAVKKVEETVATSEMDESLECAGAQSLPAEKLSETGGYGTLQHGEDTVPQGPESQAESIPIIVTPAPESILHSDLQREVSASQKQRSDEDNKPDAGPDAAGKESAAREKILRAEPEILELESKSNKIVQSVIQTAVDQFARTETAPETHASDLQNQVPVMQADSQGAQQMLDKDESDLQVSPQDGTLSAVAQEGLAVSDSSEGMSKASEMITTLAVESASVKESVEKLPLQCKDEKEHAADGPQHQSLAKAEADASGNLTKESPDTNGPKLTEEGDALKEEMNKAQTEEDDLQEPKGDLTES
UniProt Q9EQY0, residues 21-977: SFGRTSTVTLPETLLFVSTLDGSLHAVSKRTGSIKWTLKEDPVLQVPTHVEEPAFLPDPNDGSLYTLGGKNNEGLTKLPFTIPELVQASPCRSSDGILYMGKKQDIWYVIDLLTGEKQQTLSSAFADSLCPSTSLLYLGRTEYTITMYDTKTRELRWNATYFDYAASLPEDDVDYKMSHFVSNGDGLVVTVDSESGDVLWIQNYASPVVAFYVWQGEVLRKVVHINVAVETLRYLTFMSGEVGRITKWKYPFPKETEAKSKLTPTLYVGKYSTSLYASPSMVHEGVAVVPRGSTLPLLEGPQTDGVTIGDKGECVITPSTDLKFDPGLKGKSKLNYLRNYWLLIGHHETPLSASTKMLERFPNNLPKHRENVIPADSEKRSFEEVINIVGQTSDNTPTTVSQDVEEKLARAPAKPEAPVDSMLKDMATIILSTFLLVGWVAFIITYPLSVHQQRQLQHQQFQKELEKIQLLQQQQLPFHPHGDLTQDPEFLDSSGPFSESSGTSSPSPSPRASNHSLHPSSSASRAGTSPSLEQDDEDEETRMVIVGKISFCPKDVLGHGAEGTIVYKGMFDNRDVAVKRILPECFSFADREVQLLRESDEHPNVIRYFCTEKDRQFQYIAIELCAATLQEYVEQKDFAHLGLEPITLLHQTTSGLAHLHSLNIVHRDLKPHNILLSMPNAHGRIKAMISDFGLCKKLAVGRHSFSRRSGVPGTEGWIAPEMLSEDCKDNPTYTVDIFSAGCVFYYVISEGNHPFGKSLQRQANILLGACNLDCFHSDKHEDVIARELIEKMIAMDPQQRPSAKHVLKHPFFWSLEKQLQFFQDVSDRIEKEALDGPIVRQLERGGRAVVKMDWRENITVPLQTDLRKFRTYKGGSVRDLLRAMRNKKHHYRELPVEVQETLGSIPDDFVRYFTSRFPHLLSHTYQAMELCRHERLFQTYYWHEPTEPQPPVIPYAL

For experiment [2], the target named is T1, heat-shock protein 47 (HSP47), mouse, endogenous (mouse (endogenous in liver and HSCs of C57BL/6 mice)). Put plainly: co-IP; HSCs isolated from livers of the AKAP12 PDEL CRISPR model (oil+EV, oil+CR, CCl4+EV, CCl4+CR); co-immunoprecipitation and western blot. (Immunoblotting shows a protein as a band on a membrane.)
The target in experiment [3] is AKAP12 with its five activation-responsive phospho-sites deleted by CRISPR-directed HDR, human HSCs (human (endogenous locus in primary HSCs, edited)) (UniProt Q02952). Briefly: proximity ligation; cultured activated human HSCs, WT or HDR, fixed and permeabilised; PLA co-stained with the ER marker calreticulin.
Experiment [4] concerns the target A-kinase anchoring protein 12 (AKAP12), human, endogenous (human (endogenous in primary HSCs and liver tissue)) (UniProt Q02952). The experiment is described as above.
Experiment [5] shares this target. Briefly: proximity ligation; human liver tissue array (11 normal, 16 liver fibrosis tissues), paraffin sections, AKAP12 and HSP47 far red PLA probes.
Experiment [6] has the same target. Put plainly: co-IP; extracts of primary human HSCs (cultured 0, 3 or 6 days; WT or CRISPR-edited HDR cells; negative control or Prkca siRNA A or B); AKAP12-HSP47 co-immunoprecipitation and western blot.
Experiment [7] addresses biotinylated recombinant AKAP12 (human, in vitro translated) (human) (UniProt Q02952). Briefly: co-IP; recombinant system without active PKCα: biotin-antibody column with bound biotinylated AKAP12 treated with recombinant HSP47 (HSP47 blot), and reverse IP on an HSP47-antibody column with bound HSP47 treated with biotinylated AKAP12 (streptavidin-HRP); both purified.
Experiment [8] concerns the target A-kinase anchoring protein 12 (AKAP12), mouse, endogenous (mouse (endogenous in liver and HSCs of C57BL/6 mice)) (UniProt Q9WTQ5). Put plainly: proximity ligation; mouse liver sections (oil or CCl4; EV, PDEL or PMUT CRISPR), PLA co-stained with the HSC marker desmin.
For experiment [9] the target is unchanged. Put plainly: co-IP; mouse liver protein (oil or CCl4 mice; EV, PDEL or PMUT CRISPR AAV); 200 µg pre-cleared protein with 2 µg antibody; AKAP12 antibody and HSP47 blot, or HSP47 antibody and collagen blot; normal mouse IgG as negative control.

Results on 4 molecules are retold here after paper PMC9531947, “Targeting A-kinase anchoring protein 12 phosphorylation in hepatic stellate cells regulates liver injury and fibrosis in mouse models” (eLife, 2022).

No constants are given. Whether binding was seen depends on the method and setting. For part of these data: In cells and extracts the contact can be indirect. Some results given as binding are weak or reduced against the parent protein; the word gives no strength.

For “inositol-requiring enzyme 1 alpha (IRE1α), mouse, endogenous (from UniProt Q9EQY0 21-977)”, the binding result in experiment [1] and in experiment [2] was “binds” throughout.

B1: heat-shock protein 47 (HSP47), human, endogenous (natural protein, UniProt P50454 19-418, looked up)
chain: AEVKKPAAAAAPGTAEKLSPKAATLAERSAGLAFSLYQAMAKDQAVENILVSPVVVASSLGLVSLGGKATTASQAKAVLSAEQLRDEEVHAGLGELLRSLSNSTARNVTWKLGSRLYGPSSVSFADDFVRSSKQHYNCEHSKINFRDKRSALQSINEWAAQTTDGKLPEVTKDVERTDGALLVNAMFFKPHWDEKFHHKMVDNRGFMVTRSYTVGVMMMHRTGLYNYYDDEKEKLQIVEMPLAHKLSSLIILMPHHVEPLERLEKLLTKEQLKIWMGKMQKKAVAISLPKGVVEVTHDLQKHLAGLGLTEAIDKNKADLSRMSGKKDLYLASVFHATAFELDTDGNPFDQDIYGREELRSPKLFYADHPFIFLVRDTQSGSLLFIGRLVRPKGDKMRDEL
notes: heat-shock protein 47 (HSP47), ER-resident collagen chaperone, human, endogenous in primary HSCs and liver tissue; source: endogenous, primary human HSC extracts and fixed cells; human liver tissue array
As to B1, the binding entry is “binds” in [3], “binds weakly” in experiment [4], “binds” in [5] and “binds” in experiment [6].

B2: HSP47 recombinant, human (protein, UniProt P50454 19-418)
chain: AEVKKPAAAAAPGTAEKLSPKAATLAERSAGLAFSLYQAMAKDQAVENILVSPVVVASSLGLVSLGGKATTASQAKAVLSAEQLRDEEVHAGLGELLRSLSNSTARNVTWKLGSRLYGPSSVSFADDFVRSSKQHYNCEHSKINFRDKRSALQSINEWAAQTTDGKLPEVTKDVERTDGALLVNAMFFKPHWDEKFHHKMVDNRGFMVTRSYTVGVMMMHRTGLYNYYDDEKEKLQIVEMPLAHKLSSLIILMPHHVEPLERLEKLLTKEQLKIWMGKMQKKAVAISLPKGVVEVTHDLQKHLAGLGLTEAIDKNKADLSRMSGKKDLYLASVFHATAFELDTDGNPFDQDIYGREELRSPKLFYADHPFIFLVRDTQSGSLLFIGRLVRPKGDKMRDEL
Turning to B2, in experiment [7], the binding entry is “binds”.

B3: heat-shock protein 47 (HSP47), mouse, endogenous (protein, UniProt P19324 18-417)
chain: AEVKKPLEAAAPGTAEKLSSKATTLAERSTGLAFSLYQAMAKDQAVENILLSPLVVASSLGLVSLGGKATTASQAKAVLSAEKLRDEEVHTGLGELLRSLSNSTARNVTWKLGSRLYGPSSVSFADDFVRSSKQHYNCEHSKINFRDKRSALQSINEWASQTTDGKLPEVTKDVERTDGALLVNAMFFKPHWDEKFHHKMVDNRGFMVTRSYTVGVTMMHRTGLYNYYDDEKEKLQMVEMPLAHKLSSLIILMPHHVEPLERLEKLLTKEQLKAWMGKMQKKAVAISLPKGVVEVTHDLQKHLAGLGLTEAIDKNKADLSRMSGKKDLYLASVFHATAFEWDTEGNPFDQDIYGREELRSPKLFYADHPFIFLVRDNQSGSLLFIGRLVRPKGDKMRDEL
Take B3: the binding result in experiment [8] and in [9] was “binds” each time.
